Measured values taken from patent EP0573360A1, “Pyrrolothienopyrazine compounds as 5-HT3 receptors antagonists” (ADIR ET COMPAGNIE, priority 1992, dated 1993).
For some of these results: At least one compound was matched to its structure with a doubt left. Some results were stated once for a whole list of compounds, not compound by compound.

Experiments:
[1] = target: T1, récepteurs 5-HT3 (Rattus norvegicus, UniProt P35563); experiment: Bezold-Jarisch bradycardic reflex in the urethane-anaesthetised rat; format: in vivo; conditions: 30 µg i.v.
T1 construct: induite par l'injection intraveineuse d'agonistes 5-HT3 chez le rat anesthésié à l'uréthane; from tissue; host or cells: whole animal: Sprague-Dawley rat, vagal afferents
T1 sequence (P35563 24-483): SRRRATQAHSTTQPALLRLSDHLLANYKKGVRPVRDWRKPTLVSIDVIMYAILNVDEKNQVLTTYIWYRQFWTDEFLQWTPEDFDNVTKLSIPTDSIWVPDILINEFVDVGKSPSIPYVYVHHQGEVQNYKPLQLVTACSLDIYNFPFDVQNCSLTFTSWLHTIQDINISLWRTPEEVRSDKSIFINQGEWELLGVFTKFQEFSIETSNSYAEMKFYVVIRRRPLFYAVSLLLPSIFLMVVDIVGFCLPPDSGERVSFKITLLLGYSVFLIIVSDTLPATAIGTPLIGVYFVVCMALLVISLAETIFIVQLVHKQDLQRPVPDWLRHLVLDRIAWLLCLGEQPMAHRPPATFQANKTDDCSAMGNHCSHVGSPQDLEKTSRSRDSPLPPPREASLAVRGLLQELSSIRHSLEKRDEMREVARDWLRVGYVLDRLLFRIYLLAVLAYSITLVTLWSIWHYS
From the text: La bradycardie (réflexe de BEZOLD-JARISCH) est induite par l'injection intraveineuse d'agonistes 5-HT3 chez le rat anesthésié à l'uréthane. Cette réponse consiste en une bradycardie brutale mais transitoire induite par la stimulation des récepteurs 5-HT3 sur les afférences vagales. Ce modèle est donc tout à fait approprié pour révéler d'éventuels effet agonistes ou antagonistes de composés qui sont des ligands potentiels des récepteurs 5-HT3.
L'animal (rat mâle, adulte - souche Sprague-Dawley, 250-300 g) est tout d'abord anesthésié à l'uréthane (1,4 g/kg i.p.) puis trachéotomisé pour la mise en place d'une canule trachéale. Un cathéter (0,3 mm) est introduit dans l'aorte abdominale via l'artère fémorale pour l'enregistrement en continu de la pression artérielle et du rythme cardiaque. Les agents pharmacologiques sont injectés dans la veine saphène qui a été canulée à cet effet.

[2] = target: T2, récepteurs 5-HT₃ (Mus musculus, UniProt P23979); experiment: 14C-guanidinium accumulation in NG 108-15 cells; conditions: 5-HT3 agonist at 10 µM - 0,1 mM, 10 min at 37°C
T2 sequence (P23979 24-489): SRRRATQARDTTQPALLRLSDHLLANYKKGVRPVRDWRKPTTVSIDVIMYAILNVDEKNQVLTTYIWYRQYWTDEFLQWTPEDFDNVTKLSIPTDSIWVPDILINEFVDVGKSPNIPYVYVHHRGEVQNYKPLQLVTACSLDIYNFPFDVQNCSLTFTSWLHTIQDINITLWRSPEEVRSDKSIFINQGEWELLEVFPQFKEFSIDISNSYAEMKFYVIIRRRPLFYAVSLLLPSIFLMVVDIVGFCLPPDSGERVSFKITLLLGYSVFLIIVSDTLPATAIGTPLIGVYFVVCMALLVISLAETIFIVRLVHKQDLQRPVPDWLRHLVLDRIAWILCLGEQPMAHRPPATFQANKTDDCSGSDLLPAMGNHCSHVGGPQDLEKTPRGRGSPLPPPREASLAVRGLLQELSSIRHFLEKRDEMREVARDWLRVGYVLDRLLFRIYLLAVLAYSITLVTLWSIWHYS

Row | Compound | chute du rythme cardiaque [1] [%] | accumulation intracellulaire de 14C-guanidinium (multiplication factor) [2] | duration of the transient fall of rythme cardiaque [1]
1 | Cc1[nH]c2ccc(O)cc2c1CCN [2-méthyl-5-tryptamine, 2-méthyl-5 hydroxytryptamine] | -80 | 5 | 
2 | N=C(N)NC(=N)Nc1ccccc1 [phénylbiguanide] | -80 |  | 4-5 secondes
